Laboratory results: patent publication US20250288612A1 (TOPMUNNITY THERAPEUTICS TAIWAN, published 2025)
Results are given in words; binding and its absence hold for the method and conditions named. Some results given as binding are weak or reduced against the parent protein; the word gives no strength.

By UniProt entry, the sequences of proteins in these tests, tags left out. Where a name states a change or a piece, a line headed by the entry shows the natural chain unless it says otherwise.
UniProt Q9NZQ7: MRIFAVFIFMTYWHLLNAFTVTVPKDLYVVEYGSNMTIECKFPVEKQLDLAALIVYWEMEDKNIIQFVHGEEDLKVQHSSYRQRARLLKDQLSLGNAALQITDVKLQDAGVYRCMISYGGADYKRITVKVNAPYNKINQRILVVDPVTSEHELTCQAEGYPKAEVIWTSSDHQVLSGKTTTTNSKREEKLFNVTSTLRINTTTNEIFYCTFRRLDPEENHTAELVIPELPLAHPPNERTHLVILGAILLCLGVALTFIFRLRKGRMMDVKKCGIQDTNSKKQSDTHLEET

What was measured:
recombinant PD-L1 [1] = molecular target: T1, recombinant PD-L1 (UniProt Q9NZQ7 19-238, limits assumed); experiment: SPR, Biacore T200
T1 construct: also called Programmed Death-Ligand 1

recombinant PD-L1 [2] = molecular target: T1, recombinant PD-L1; experiment: SPR, Biacore T200, multi-cycle kinetics, hTT-01 captured on Sensor Chip Protein A, PD-L1 injected as analyte, 25 C

binding (recombinant PD-L1 [1]): binds | binding (recombinant PD-L1 [2]): binds
B1: humanized anti-PD-L1 monoclonal antibody hTT-01 (antibody, V domains shown)
VH: EVQLVESGGGLVKPGGSLRLSCAASGFSLSNYVMSWVRQAPGKGLEWVATISSGGRYIYYTDSVKGRFTISRDNAKNSLYLQMNSLRAEDTAVYYCARDGSTLYYFDYWGQGTTVTVSS
VL: QTVLTQSPATLSLSPGERATLSCSASSSVDYMYWYQQKPGQAPRLLIYDTSNLATGIPARFSGSGSGTDFTLTISSLEPEDFATYYCQQWSSSPPITFGQGTKVEIK
notes: It was captured through its Fc on a Protein A chip, and an anti-human IgG secondary antibody was used in FACS; also called TT-01 humanized monoclonal antibody
